From patent publication US4478827A (The General Hospital Corporation, priority 1983, dated 1984)
Some peptides are written in HELM: one residue between dots, names in brackets for other building blocks, links after the first $.

How the values were obtained:
[1] = general procedure: Boc solid-phase peptide synthesis; LS-601 Merrifield Resin containing 0.75 mMol Cl g^-1 (Laboratory Systems Inc.); LeBop; conditions: purification step, on 391 mg crude
[2] = Boc solid-phase peptide synthesis; Merrifield resin; LeBop; conditions: whole synthesis, from protected peptidyl-polymer after HF cleavage, scale 377 micromoles

Substance “PEPTIDE1{P.H.P.F.H.F.F.V.Y.[dK]}$$$$V2.0” has a step yield [1] of 80% and a crude yield [2] of 92%.
